Source: paper doi:10.1101/2025.10.30.684516

Sequences of proteins named here, by UniProt entry; tags and fusion partners are left off. Residues count along the entry.
UniProt Q9UBN7: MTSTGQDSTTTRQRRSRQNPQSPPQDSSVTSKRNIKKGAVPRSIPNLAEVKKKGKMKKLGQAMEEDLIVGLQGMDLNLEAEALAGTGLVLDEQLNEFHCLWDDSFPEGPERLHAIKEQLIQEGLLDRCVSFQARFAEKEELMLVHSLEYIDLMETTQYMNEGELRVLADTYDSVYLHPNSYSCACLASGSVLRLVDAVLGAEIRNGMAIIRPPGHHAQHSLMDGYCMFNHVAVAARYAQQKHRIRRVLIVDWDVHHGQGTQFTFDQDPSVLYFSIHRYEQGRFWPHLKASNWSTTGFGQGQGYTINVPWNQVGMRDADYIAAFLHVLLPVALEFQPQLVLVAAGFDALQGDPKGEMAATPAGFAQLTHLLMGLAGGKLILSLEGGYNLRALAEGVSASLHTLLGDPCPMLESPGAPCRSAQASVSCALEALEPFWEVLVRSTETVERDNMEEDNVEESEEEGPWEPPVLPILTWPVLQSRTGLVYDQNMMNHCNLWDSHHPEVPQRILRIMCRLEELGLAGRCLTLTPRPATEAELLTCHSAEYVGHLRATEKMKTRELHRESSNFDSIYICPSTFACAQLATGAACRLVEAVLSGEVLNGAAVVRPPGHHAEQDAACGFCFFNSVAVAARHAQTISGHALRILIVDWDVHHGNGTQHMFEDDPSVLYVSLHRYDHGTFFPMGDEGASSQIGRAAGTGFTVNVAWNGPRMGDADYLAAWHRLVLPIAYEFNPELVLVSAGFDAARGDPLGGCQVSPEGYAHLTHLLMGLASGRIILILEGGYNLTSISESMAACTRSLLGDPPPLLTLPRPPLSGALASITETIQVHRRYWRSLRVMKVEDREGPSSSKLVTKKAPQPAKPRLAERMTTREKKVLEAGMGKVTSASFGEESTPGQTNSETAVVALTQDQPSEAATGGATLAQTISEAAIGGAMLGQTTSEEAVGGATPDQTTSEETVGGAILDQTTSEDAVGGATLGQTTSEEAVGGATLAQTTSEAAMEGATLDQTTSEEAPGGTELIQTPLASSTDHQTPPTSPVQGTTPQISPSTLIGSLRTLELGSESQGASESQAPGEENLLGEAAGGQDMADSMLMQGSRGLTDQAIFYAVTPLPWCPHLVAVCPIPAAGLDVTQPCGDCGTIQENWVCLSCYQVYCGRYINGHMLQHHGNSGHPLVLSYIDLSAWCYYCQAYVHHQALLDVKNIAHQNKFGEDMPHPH
UniProt P08670: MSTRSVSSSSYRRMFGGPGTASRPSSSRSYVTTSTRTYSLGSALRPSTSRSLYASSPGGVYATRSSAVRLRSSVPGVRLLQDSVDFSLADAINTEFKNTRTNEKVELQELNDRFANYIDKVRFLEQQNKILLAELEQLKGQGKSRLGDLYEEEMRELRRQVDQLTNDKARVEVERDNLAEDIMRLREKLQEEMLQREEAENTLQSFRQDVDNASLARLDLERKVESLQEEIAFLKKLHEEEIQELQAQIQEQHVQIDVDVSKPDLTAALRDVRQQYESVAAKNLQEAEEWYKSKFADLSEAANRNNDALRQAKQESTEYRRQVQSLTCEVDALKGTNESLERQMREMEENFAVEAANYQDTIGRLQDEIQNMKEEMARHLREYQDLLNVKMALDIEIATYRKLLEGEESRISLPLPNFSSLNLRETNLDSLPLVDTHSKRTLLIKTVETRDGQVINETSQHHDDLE
UniProt Q06323: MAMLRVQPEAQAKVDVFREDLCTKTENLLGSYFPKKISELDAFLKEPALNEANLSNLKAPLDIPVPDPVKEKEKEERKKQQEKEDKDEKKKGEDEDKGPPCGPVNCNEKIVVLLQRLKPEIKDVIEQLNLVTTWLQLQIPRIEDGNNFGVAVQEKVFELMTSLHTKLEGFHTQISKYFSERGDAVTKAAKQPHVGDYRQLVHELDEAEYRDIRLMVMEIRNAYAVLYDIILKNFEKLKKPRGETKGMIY
UniProt P15927: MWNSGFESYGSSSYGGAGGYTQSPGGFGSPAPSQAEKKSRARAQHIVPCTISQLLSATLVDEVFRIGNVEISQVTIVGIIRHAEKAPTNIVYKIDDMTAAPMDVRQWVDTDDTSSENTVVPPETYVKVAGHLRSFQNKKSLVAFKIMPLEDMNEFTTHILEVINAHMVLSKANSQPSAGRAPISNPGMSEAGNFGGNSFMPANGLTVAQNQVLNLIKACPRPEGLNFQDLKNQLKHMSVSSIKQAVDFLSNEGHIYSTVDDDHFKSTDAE
UniProt P11940: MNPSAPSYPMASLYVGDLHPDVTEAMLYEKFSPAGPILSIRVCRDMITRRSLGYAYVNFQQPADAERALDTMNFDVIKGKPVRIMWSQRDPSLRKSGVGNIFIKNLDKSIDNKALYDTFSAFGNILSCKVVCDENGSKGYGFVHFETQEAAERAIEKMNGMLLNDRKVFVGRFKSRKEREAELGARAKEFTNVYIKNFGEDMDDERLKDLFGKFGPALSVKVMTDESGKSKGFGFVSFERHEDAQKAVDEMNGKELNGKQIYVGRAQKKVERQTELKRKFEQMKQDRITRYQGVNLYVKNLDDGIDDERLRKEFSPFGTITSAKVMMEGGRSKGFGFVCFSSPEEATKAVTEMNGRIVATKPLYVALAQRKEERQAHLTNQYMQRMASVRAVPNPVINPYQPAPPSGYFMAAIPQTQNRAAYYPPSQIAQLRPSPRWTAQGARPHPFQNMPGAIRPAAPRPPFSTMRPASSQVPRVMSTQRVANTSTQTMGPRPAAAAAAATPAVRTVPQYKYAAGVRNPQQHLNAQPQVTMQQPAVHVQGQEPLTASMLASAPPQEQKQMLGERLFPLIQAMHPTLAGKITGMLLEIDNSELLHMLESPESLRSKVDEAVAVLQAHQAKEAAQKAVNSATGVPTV
UniProt P06748: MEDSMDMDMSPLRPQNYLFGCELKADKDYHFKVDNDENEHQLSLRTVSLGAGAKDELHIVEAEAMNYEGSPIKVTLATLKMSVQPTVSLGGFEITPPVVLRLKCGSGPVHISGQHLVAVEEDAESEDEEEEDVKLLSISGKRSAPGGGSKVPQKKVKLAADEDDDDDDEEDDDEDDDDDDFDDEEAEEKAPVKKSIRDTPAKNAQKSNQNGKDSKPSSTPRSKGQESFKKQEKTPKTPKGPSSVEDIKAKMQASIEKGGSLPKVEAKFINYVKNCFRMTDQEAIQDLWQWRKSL
UniProt O76031, residues 57-633: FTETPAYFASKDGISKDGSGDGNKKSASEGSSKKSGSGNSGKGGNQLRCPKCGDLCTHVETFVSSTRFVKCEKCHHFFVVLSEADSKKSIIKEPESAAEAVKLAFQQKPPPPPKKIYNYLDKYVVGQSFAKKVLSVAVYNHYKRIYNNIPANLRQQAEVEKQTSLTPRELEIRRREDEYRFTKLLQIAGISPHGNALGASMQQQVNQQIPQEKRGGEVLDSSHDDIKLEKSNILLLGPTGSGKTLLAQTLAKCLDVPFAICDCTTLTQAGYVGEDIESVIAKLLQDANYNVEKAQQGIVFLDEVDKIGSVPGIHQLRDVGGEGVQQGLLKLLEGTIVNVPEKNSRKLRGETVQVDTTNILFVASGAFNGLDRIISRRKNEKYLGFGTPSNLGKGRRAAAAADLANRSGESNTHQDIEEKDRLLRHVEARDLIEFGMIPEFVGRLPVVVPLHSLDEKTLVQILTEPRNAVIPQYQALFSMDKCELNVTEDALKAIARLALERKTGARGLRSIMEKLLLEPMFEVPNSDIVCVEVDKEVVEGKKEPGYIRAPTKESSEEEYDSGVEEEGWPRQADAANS
UniProt O75475: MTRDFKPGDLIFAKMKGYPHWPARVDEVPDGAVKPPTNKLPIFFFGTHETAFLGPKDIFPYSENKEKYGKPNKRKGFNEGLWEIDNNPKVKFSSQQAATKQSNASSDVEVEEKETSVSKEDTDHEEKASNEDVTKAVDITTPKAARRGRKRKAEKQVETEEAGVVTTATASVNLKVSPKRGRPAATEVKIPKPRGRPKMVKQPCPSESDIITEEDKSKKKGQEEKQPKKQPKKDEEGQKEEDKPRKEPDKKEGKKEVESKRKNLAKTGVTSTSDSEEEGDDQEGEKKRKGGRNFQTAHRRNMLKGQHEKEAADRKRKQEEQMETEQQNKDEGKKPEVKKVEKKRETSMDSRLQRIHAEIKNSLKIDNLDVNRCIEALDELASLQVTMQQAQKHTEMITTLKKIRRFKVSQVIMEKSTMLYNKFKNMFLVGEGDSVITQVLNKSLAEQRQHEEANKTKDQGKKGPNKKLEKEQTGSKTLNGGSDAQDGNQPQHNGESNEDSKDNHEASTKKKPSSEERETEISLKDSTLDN
UniProt Q9UQE7: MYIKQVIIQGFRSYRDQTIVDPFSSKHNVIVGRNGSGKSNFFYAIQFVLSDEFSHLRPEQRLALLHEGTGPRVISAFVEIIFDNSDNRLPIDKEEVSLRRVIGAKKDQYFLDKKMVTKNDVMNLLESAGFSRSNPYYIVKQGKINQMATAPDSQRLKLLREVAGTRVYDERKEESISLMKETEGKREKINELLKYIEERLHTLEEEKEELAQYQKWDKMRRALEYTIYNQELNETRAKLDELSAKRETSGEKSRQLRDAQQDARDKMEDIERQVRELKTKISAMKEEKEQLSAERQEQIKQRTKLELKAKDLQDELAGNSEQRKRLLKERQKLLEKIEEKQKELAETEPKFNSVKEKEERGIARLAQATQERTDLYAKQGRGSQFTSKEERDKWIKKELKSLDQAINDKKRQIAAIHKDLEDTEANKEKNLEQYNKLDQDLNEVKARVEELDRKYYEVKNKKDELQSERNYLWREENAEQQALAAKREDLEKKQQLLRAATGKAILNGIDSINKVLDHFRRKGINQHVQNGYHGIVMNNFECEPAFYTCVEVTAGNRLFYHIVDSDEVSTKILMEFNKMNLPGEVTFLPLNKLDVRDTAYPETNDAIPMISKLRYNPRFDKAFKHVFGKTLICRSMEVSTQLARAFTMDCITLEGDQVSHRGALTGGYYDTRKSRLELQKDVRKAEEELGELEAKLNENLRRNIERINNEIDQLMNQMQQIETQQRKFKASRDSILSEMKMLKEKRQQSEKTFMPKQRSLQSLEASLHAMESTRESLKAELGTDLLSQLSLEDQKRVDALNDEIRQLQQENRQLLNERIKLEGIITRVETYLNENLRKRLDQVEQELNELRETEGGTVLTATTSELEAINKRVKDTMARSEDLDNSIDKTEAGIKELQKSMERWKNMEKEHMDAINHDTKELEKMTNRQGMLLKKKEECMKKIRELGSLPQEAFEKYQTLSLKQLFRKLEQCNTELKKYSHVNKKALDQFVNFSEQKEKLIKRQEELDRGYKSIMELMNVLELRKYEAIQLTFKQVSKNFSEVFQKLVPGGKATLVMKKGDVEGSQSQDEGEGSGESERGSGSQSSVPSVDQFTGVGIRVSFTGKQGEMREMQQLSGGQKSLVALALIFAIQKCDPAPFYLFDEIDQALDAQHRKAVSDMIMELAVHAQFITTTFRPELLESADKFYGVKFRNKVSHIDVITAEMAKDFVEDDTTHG

B1: RBM42 (protein, UniProt Q9BTD8 1-480)
chain: MAGAGPAPGLPGAGGPVVPGPGAGIPGKSGEERLKEMEAEMALFEQEVLGAPVPGIPTAVPAVPTVPTVPTVEAMQVPAAPVIRPIIATNTYQQVQQTLEARAAAAATVVPPMVGGPPFVGPVGFGPGDRSHLDSPEAREAMFLRRAAVAPQRAPILRPAFVPHVLQRADSALSSAAAGPRPMALRPPHQALVGPPLPGPPGPPMMLPPMARAPGPPLGSMAALRPPLEEPAAPRELGLGLGLGLKEKEEAVVAAAAGLEEASAAVAVGAGGAPAGPAVIGPSLPLALAMPLPEPEPLPLPLEVVRGLLPPLRIPELLSLRPRPRPPRPEPPPGLMALEVPEPLGEDKKKGKPEKLKRCIRTAAGSSWEDPSLLEWDADDFRIFCGDLGNEVNDDILARAFSRFPSFLKAKVIRDKRTGKTKGYGFVSFKDPSDYVRAMREMNGKYVGSRPIKLRKSMWKDRNLDVVRKKQKEKKKLGLR
B2: TRMT10C (protein, UniProt Q7L0Y3 40-403)
chain: MSSKIPAVTYPKNESTPPSEELELDKWKTTMKSSVQEECVSTISSSKDEDPLAATREFIEMWRLLGREVPEHITEEELKTLMECVSNTAKKKYLKYLYTKEKVKKARQIKKEMKAAAREEAKNIKLLETTEEDKQKNFLFLRLWDRNMDIAMGWKGAQAMQFGQPLVFDMAYENYMKRKELQNTVSQLLESEGWNRRNVDPFHIYFCNLKIDGALHRELVKRYQEKWDKLLLTSTEKSHVDLFPKDSIIYLTADSPNVMTTFRHDKVYVIGSFVDKSMQPGTSLAKAKRLNLATECLPLDKYLQWEIGNKNLTLDQMIRILLCLKNNGNWQEALQFVPKRKHTGFLEISQHSQEFINRLKKAKT
B3: UBLCP1 (Ubiquitin-like domain-containing C-terminal phosphatase 1) (protein, UniProt Q8WVY7 1-318)
chain: MALPIIVKWGGQEYSVTTLSEDDTVLDLKQFLKTLTGVLPERQKLLGLKVKGKPAENDVKLGALKLKPNTKIMMMGTREESLEDVLGPPPDNDDVVNDFDIEDEVVEVENREENLLKISRRVKEYKVEILNPPREGKKLLVLDVDYTLFDHRSCAETGVELMRPYLHEFLTSAYEDYDIVIWSATNMKWIEAKMKELGVSTNANYKITFMLDSAAMITVHTPRRGLIDVKPLGVIWGKFSEFYSKKNTIMFDDIGRNFLMNPQNGLKIRPFMKAHLNRDKDKELLKLTQYLKEIAKLDDFLDLNHKYWERYLSKKQGQ
B4: ACAA2 (protein, UniProt P42765 1-397)
chain: MALLRGVFVVAAKRTPFGAYGGLLKDFTATDLSEFAAKAALSAGKVSPETVDSVIMGNVLQSSSDAIYLARHVGLRVGIPKETPALTINRLCGSGFQSIVNGCQEICVKEAEVVLCGGTESMSQAPYCVRNVRFGTKLGSDIKLEDSLWVSLTDQHVQLPMAMTAENLAVKHKISREECDKYALQSQQRWKAANDAGYFNDEMAPIEVKTKKGKQTMQVDEHARPQTTLEQLQKLPPVFKKDGTVTAGNASGVADGAGAVIIASEDAVKKHNFTPLARIVGYFVSGCDPSIMGIGPVPAISGALKKAGLSLKDMDLVEVNEAFAPQYLAVERSLDLDISKTNVNGGAIALGHPLGGSGSRITAHLVHELRRRGGKYAVGSACIGGGQGIAVIIQSTA
B5: RFC1 (protein, UniProt P35251 1-1148)
chain: MDIRKFFGVIPSGKKLVSETVKKNEKTKSDEETLKAKKGIKEIKVNSSRKEDDFKQKQPSKKKRIIYDSDSESEETLQVKNAKKPPEKLPVSSKPGKISRQDPVTYISETDEEDDFMCKKAASKSKENGRSTNSHLGTSNMKKNEENTKTKNKPLSPIKLTPTSVLDYFGTGSVQRSNKKMVASKRKELSQNTDESGLNDEAIAKQLQLDEDAELERQLHEDEEFARTLAMLDEEPKTKKARKDTEAGETFSSVQANLSKAEKHKYPHKVKTAQVSDERKSYSPRKQSKYESSKESQQHSKSSADKIGEVSSPKASSKLAIMKRKEESSYKEIEPVASKRKENAIKLKGETKTPKKTKSSPAKKESVSPEDSEKKRTNYQAYRSYLNREGPKALGSKEIPKGAENCLEGLIFVITGVLESIERDEAKSLIERYGGKVTGNVSKKTNYLVMGRDSGQSKSDKAAALGTKIIDEDGLLNLIRTMPGKKSKYEIAVETEMKKESKLERTPQKNVQGKRKISPSKKESESKKSRPTSKRDSLAKTIKKETDVFWKSLDFKEQVAEETSGDSKARNLADDSSENKVENLLWVDKYKPTSLKTIIGQQGDQSCANKLLRWLRNWQKSSSEDKKHAAKFGKFSGKDDGSSFKAALLSGPPGVGKTTTASLVCQELGYSYVELNASDTRSKSSLKAIVAESLNNTSIKGFYSNGAASSVSTKHALIMDEVDGMAGNEDRGGIQELIGLIKHTKIPIICMCNDRNHPKIRSLVHYCFDLRFQRPRVEQIKGAMMSIAFKEGLKIPPPAMNEIILGANQDIRQVLHNLSMWCARSKALTYDQAKADSHRAKKDIKMGPFDVARKVFAAGEETAHMSLVDKSDLFFHDYSIAPLFVQENYIHVKPVAAGGDMKKHLMLLSRAADSICDGDLVDSQIRSKQNWSLLPAQAIYASVLPGELMRGYMTQFPTFPSWLGKHSSTGKHDRIVQDLALHMSLRTYSSKRTVNMDYLSLLRDALVQPLTSQGVDGVQDVVALMDTYYLMKEDFENIMEISSWGGKPSPFSKLDPKVKAAFTRAYNKEAHLTPYSLQAIKASRHSTSPSLDSEYNEELNEDDSQSDEKDQDAIETDAMIKKKTKSSKPSKPEKDKEPRKGKGKSSKK
B6: ACADM (protein, UniProt P11310 26-421)
chain: KANRQREPGLGFSFEFTEQQKEFQATARKFAREEIIPVAAEYDKTGEYPVPLIRRAWELGLMNTHIPENCGGLGLGTFDACLISEELAYGCTGVQTAIEGNSLGQMPIIIAGNDQQKKKYLGRMTEEPLMCAYCVTEPGAGSDVAGIKTKAEKKGDEYIINGQKMWITNGGKANWYFLLARSDPDPKAPANKAFTGFIVEADTPGIQIGRKELNMGQRCSDTRGIVFEDVKVPKENVLIGDGAGFKVAMGAFDKTRPVVAAGAVGLAQRALDEATKYALERKTFGKLLVEHQAISFMLAEMAMKVELARMSYQRAAWEVDSGRRNTYYASIAKAFAGDIANQLATDAVQILGGNGFNTEYPVEKLMRDAKIYQIYEGTSQIQRLIVAREHIDKYKN

Assays:
Test in all cases: proximity labelling
[1] = target: HDAC6-APEX2-GFP (UniProt Q9UBN7)
[2] = target: VIM-APEX2-GFP (UniProt P08670)
[3] = target: HDAC6-APEX2-GFP (UniProt Q9UBN7); remark: listed apart in the source
[4] = target: VIM-APEX2-GFP (UniProt P08670); remark: listed apart in the source

Row | binding [1] | binding [3] | other results | Molecule
1 | binds | – | binding [2]: binds | PSME1 (Proteasome activator subunit 1) (from UniProt Q06323 1-249)
2 | binds | – | – | RPA2 (from UniProt P15927 1-270)
3 | binds | – | – | TPR (from UniProt P12270 1-2363)
4 | binds | – | binding [2]: binds | PABPC1 (from UniProt P11940 1-636)
5 | binds | – | – | NPM1 (from UniProt P06748 1-294)
6 | binds | – | binding [2]: binds | ClpX (from UniProt O76031 57-633)
7 | binds | – | – | PSIP1 (from UniProt O75475 1-530)
8 | binds | – | – | SMC3 (from UniProt Q9UQE7 1-1217)
9 | – | binds | – | B1
10 | – | binds | – | B2
11 | – | binds | binding [4]: binds | B3
12 | – | binds | – | B4
13 | – | binds | – | B5
14 | – | binds | – | B6

Where two headings read alike, the source gives them in different places. Results are given in words; binding and its absence hold for the method and conditions named. Binding seen in cells or lysates may run through a third protein. These calls come from enrichment with a bait or labelling near it, and not all partners need be listed.
